Assay results reported in article PMC8278045.
Results are given in words; binding and its absence hold for the method and conditions named. Binding seen in cells or lysates may run through a third protein. Binding can be weak; no strength is given.

The chains behind the UniProt entries cited, without tags or fusion partners. Where a name states a change or a piece, a line headed by the entry shows the natural chain unless it says otherwise.
UniProt P31094: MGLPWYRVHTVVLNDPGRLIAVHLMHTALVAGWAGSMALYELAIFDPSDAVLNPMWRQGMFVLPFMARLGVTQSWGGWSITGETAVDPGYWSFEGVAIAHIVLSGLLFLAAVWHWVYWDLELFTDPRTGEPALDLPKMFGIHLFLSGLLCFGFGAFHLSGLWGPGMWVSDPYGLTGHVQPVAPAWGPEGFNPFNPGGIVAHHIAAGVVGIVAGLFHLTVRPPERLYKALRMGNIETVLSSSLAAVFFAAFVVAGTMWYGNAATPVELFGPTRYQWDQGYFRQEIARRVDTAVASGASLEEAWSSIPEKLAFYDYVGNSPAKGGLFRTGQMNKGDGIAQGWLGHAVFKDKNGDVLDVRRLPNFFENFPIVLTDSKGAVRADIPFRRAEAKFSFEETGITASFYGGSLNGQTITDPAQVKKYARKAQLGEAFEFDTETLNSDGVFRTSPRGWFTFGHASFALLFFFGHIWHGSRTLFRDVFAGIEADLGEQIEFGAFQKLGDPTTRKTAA
UniProt Q31NL7: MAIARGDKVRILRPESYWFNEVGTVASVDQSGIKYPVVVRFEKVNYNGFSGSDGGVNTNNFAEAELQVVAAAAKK
UniProt Q31LJ0: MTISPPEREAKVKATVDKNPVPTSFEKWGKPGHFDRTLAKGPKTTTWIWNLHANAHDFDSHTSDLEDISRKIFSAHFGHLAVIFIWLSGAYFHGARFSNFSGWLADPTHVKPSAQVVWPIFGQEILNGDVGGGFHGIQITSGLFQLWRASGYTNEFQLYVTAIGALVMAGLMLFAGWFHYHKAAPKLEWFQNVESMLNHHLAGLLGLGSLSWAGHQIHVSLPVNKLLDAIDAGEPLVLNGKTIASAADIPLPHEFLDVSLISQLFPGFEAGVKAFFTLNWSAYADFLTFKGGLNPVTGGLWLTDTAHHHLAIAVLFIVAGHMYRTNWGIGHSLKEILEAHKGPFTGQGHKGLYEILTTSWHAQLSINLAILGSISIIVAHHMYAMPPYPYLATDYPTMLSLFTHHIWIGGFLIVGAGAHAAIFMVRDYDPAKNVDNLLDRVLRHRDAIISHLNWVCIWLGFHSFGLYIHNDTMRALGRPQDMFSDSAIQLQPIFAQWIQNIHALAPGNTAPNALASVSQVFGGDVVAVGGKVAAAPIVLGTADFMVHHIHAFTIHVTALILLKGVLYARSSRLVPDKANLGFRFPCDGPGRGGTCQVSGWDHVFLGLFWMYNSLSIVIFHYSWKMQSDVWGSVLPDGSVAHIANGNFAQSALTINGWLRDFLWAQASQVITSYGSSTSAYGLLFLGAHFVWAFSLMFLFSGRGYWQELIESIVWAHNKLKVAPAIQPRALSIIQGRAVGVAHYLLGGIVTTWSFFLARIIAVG
UniProt Q31LJ1: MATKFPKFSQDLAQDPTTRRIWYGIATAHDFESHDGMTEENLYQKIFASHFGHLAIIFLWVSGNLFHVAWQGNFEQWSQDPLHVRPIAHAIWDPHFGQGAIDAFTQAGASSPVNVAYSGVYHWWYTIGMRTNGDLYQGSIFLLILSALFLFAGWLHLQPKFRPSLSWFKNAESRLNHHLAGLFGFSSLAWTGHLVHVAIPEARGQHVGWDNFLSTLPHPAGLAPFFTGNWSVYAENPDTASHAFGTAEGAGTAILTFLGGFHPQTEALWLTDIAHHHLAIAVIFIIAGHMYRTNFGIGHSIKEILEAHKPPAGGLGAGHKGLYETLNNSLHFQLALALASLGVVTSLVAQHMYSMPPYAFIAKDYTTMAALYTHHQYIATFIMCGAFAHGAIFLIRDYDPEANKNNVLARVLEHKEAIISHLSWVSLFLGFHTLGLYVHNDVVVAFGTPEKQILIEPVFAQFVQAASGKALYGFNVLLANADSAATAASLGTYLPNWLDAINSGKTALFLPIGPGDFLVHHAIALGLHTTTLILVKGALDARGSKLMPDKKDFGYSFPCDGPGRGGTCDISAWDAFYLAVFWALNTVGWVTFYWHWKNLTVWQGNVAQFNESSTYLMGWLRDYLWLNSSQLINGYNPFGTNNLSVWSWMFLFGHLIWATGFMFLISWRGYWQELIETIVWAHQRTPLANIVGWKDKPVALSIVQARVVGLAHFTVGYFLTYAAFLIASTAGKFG
UniProt P95822: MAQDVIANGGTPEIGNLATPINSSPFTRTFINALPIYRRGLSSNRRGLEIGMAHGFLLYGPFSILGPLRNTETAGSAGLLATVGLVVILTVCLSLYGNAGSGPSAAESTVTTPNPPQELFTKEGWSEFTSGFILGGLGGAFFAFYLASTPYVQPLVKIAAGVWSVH
UniProt P11472: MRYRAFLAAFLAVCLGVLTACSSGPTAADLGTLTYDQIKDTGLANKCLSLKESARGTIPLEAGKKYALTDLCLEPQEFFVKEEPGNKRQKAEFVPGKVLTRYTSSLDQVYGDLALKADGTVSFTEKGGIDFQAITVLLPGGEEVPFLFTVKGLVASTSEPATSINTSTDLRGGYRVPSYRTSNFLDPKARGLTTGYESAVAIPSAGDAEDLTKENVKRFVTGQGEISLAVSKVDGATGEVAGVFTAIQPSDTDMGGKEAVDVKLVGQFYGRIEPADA

How the values were obtained:
[1] = target: PsbB (CP47) of Photosystem II labelled with enhanced GFP (PSII–GFP) (Synechococcus elongatus PCC 7942) (UniProt P31094); test: co-IP; GFP pull-down (µMACS/MultiMACS GFP Isolation Kit beads) from thylakoid membranes of GFP-labelled Syn7942 strains solubilised with 1% digitonin; five washes with 10 mM Tris pH 6.8, 200 mM NaCl, 1 mM EDTA; eluate on 12% SDS-PAGE, subunits assigned to bands
[2] = target: PsaE of Photosystem I labelled with enhanced GFP (PSI–GFP) (Synechococcus elongatus PCC 7942) (UniProt Q31NL7); test: as above

Substance	binding [1]	binding [2]
PsaA (from UniProt Q31LJ0)	binds	–
PsaB (from UniProt Q31LJ1)	binds	–
PsaL (from UniProt P95822)	binds	binds
PsbB (CP47) (from UniProt P31094 1-508)	–	binds
PsbO (from UniProt P11472)	–	binds
